{
  "source": "PubChem BioAssay AID504444",
  "about": "(National Center for Advancing Translational Sciences (NCATS), 2011)",
  "note": "About 7,500 (2.1%) of roughly 360,000 compounds were called active. This list was built around the results that the source calls inconclusive (neither active nor inactive); the mix of calls is not that of the screen. Calls come from the whole dose curve; as a rule, active = well fitted inhibition curve with a large enough effect; inconclusive = small, poorly fitted or top-dose-only effect, or effect the other way; inactive = flat fitted curve, though single readings scatter. Where the call is inconclusive, the potency comes from a doubtful curve fit. % is set by controls: 0 for no effect and ±100 for the full control effect; potency is the fitted concentration of half-maximal effect.",
  "data": [
    {"assay": "Nrf2 qHTS screen for inhibitors; note: nearly all actives have a fitted effect of over 60% in size", "conditions": "A549 ARE-Fluc reporter, luciferase luminescence, 18-24 h; activity change, negative = inhibition: at 46 µM (top of the series)", "method_in_brief": "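Nrf2 function is reported as luminescence of an ARE-controlled luciferase in A549 cells. Compounds were tested at several concentrations, and a CellTiter-Fluor read on the same wells flagged cytotoxicity.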", "values": [
      {"smiles": "COc1ccc(CNC(=O)C2CSCCS2)cc1", "note": "(stereo unspecified)", "Potency": "inconclusive: 3.66 µM [falling, partial curve, poor fit]"},
      {"smiles": "Cc1ccc(S(=O)(=O)CCSC(=N)N)cc1", "Potency": "inconclusive: 23.1 µM [falling, partial curve, poor fit]"},
      {"smiles": "O=C(NCC1COc2ccccc2O1)c1ccco1", "note": "(stereo unspecified)", "Potency": "inconclusive: 11.6 µM [activator, partial curve, poor fit]"},
      {"smiles": "CCOc1ccccc1CNC(=O)Cn1cc2c(n1)-c1c(oc(C(=O)N3CCCC3)c1C)CC2", "Potency": "inconclusive: 20.6 µM [falling, single point]"},
      {"smiles": "CC1Cc2cc(/C=C3/SC(=S)NC3=O)ccc2O1", "note": "(stereo unspecified)", "Potency": "inconclusive: 2.91 µM [activator, single point]"},
      {"smiles": "COc1ccc(N2CCN(Cc3cccn3-c3nnc(N4CCN(C5CCCCC5)CC4)s3)CC2)cc1", "Potency": "inconclusive: 14.6 µM [activator, partial curve, poor fit]"},
      {"smiles": "Cc1nc(SC(C)C(=O)Nc2ccccc2Cl)cc(-c2ccccc2)n1", "note": "(stereo unspecified)", "activity change, negative = inhibition": "inactive: 2.36%"},
      {"smiles": "CCOc1ccc(-n2nc(CO)c(C(=O)NCc3cccs3)n2)cc1", "activity change, negative = inhibition": "inactive: 3.22%"},
      {"smiles": "Cc1cccc(N(Cc2ccccc2)C(=O)CCl)c1", "activity change, negative = inhibition": "inactive: -3.25%"},
      {"smiles": "CCN(CC)S(=O)(=O)c1ccc(N2CCOCC2)c(NC(=O)CN2C(=O)NC3(CCCC3)C2=O)c1", "activity change, negative = inhibition": "inactive: -3.12%"},
      {"smiles": "FC(F)(F)c1nnc2ccc(N3CCCCCC3)nn12", "Potency": "inconclusive: 4.61 µM [falling, partial curve]"},
      {"smiles": "COc1cccc(-c2nc(N3CCCCC3C)c3ccccc3n2)c1O", "note": "(stereo unspecified)", "Potency": "inconclusive: 18.4 µM [falling, single point]"},
      {"smiles": "O=C(CSc1ncn[nH]1)N1N=C2/C(=C/c3ccco3)CCCC2C1c1ccco1", "note": "(stereo unspecified)", "Potency": "inconclusive: 20.6 µM [falling, single point]"},
      {"smiles": "C=C(C)Cn1c(Sc2nc3ccccc3[nH]2)nc2c1c(=O)[nH]c(=O)n2C", "activity change, negative = inhibition": "inactive: -10.6%"},
      {"smiles": "O=C(COC(=O)C1CC1)Nc1ccc(S(=O)(=O)N2CCOCC2)cc1", "Potency": "inconclusive: 32.6 µM [activator, partial curve, poor fit]"},
      {"smiles": "CN1C(=O)C(C)(C)c2cc(S(=O)(=O)N3CCCC(C(=O)NCc4ccccc4Cl)C3)ccc21", "note": "(stereo unspecified)", "Potency": "inconclusive: 20.6 µM [falling, partial curve]"},
      {"smiles": "O=C(O)Cc1ccc(NC2(c3ccccc3)C(=O)c3ccccc3C2=O)cc1", "Potency": "inconclusive: 29.1 µM [activator, single point]"},
      {"smiles": "COCC(C)n1c(SCc2cc(C(=O)OC)c(C)o2)nc2ccccc2c1=O", "note": "(stereo unspecified)", "Potency": "inconclusive: 16.4 µM [falling, single point]"},
      {"smiles": "Cc1ccc(S(=O)(=O)N2CCN(C(=O)c3ccc(OCc4c(C)noc4C)cc3)CC2)cc1", "Potency": "inconclusive: 16.4 µM [falling, single point]"},
      {"smiles": "COc1ccc(CCN2CC(C(=O)N(C)C3CCOCC3)CCC2=O)cc1", "note": "(stereo unspecified)", "activity change, negative = inhibition": "inactive: 1.8%"},
      {"smiles": "O=C(NCCN1CCOCC1)c1ccc(=O)n(Cc2ccc(Cl)cc2)c1", "activity change, negative = inhibition": "inactive: -4.99%"},
      {"smiles": "CC(Oc1ccccc1Cl)C(=O)Nc1ccc(S(=O)(=O)N2CCOCC2)cc1", "note": "(stereo unspecified)", "Potency": "inconclusive: 18.4 µM [falling, single point]"},
      {"smiles": "O=[N+]([O-])c1ccc([S+](=O)([O-])N2CCN([S+](=O)([O-])c3ccc4c(c3)OCCO4)CC2)c([N+](=O)[O-])c1", "activity change, negative = inhibition": "inactive: -17.8%"},
      {"smiles": "CCN(CC)c1ccc2c(c1)oc(=O)c1c(Cl)cc(=O)oc12", "activity change, negative = inhibition": "inactive: 16.3%"},
      {"smiles": "Cc1ccc([N+](=O)[O-])cc1Nc1nc(N2CCOCC2)nc(N2CCOCC2)n1", "activity change, negative = inhibition": "inactive: -8.18%"},
      {"smiles": "C=CCOc1cccc(CNc2ccc3[nH]c(=O)[nH]c3c2)c1", "Potency": "inconclusive: 32.6 µM [falling, single point]"},
      {"smiles": "CC(NC(=O)c1ccccc1)C(=O)N/N=C/c1cccc([N+](=O)[O-])c1", "note": "(stereo unspecified)", "Potency": "inconclusive: 23.1 µM [activator, single point]"},
      {"smiles": "O=C(/C=C/c1ccccc1[N+](=O)[O-])Nc1cc(S(=O)(=O)N2CCOCC2)ccc1N1CCOCC1", "Potency": "inconclusive: 0.0731 µM [falling, full curve, poor fit]"},
      {"smiles": "CC(C)(C)NC(=O)C(c1ccc(F)cc1)N(Cc1ccco1)C(=O)CCC(=O)Nc1nccs1", "note": "(stereo unspecified)", "Potency": "inconclusive: 4.61 µM [falling, partial curve, poor fit]"},
      {"smiles": "CCOc1ccc2nc(NCCNC(=O)Nc3ccccc3)c(C#N)cc2c1", "activity change, negative = inhibition": "inactive: -22.7%"},
      {"smiles": "COc1cccc(NC(=O)CN2C(=O)COc3ccc(C)cc32)c1", "Potency": "inconclusive: 29.1 µM [falling, single point]"},
      {"smiles": "O=C(Nc1ccnn1C1CCN(C2CCOCC2)CC1)c1cccc(F)c1", "activity change, negative = inhibition": "inactive: 0.227%"},
      {"smiles": "Cc1cc(NC(=S)Nc2ccc(C)c(Cl)c2)n[nH]1", "Potency": "inconclusive: 14.6 µM [activator, partial curve, poor fit]"},
      {"smiles": "COc1ccc(-c2cc(=NC(CC(C)C)C(=O)O)c3cc(C)ccc3o2)cc1", "note": "(stereo unspecified)", "Potency": "inconclusive: 1.3 µM [activator, full curve]"},
      {"smiles": "COc1ccc(NC(=O)CCc2ccccc2)cc1S(=O)(=O)N1CCCCC1", "Potency": "inconclusive: 18.4 µM [falling, partial curve]"},
      {"smiles": "COc1ccc(CN(Cc2cccnc2)S(=O)(=O)c2ccc(-n3cnnn3)c(OC)c2)cc1", "Potency": "inconclusive: 16.4 µM [falling, single point]"},
      {"smiles": "O=C(CSc1nnc(-c2c[nH]c3ccccc23)o1)N1c2ccccc2CCc2ccccc21", "Potency": "active: 11.6 µM"},
      {"smiles": "COc1ccc([C@H]2CC(=O)C=C(c3ccc(C)c([N+](=O)[O-])c3)C2)cc1", "Potency": "inconclusive: 13 µM [activator, partial curve]"},
      {"smiles": "COc1ccc(CCNC(=O)c2cc(COc3c(C)cccc3C)on2)c(OC)c1", "Potency": "inconclusive: 14.6 µM [activator, partial curve]"},
      {"smiles": "COc1ccc(NC(=O)CN2CCCCC2)c([N+](=O)[O-])c1", "Potency": "inconclusive: 23.1 µM [activator, partial curve, poor fit]"},
      {"smiles": "CC(C)CN(C(=O)COC(=O)/C=C/c1ccc(Cl)c(Cl)c1)c1c(N)n(Cc2ccccc2)c(=O)[nH]c1=O", "Potency": "inconclusive: 29.1 µM [falling, single point]"},
      {"smiles": "CCOC(=O)c1c(NCc2ccccc2)n[nH]c1C", "activity change, negative = inhibition": "inactive: -1.75%"},
      {"smiles": "O=C(c1ccco1)N1CCN(C(=S)Nc2ccccc2C(F)(F)F)CC1", "Potency": "inconclusive: 25.9 µM [falling, single point]"},
      {"smiles": "Cc1ccc2nc(NC(=O)C3CCCN(S(=O)(=O)c4cccc5nsnc45)C3)sc2c1", "note": "(stereo unspecified)", "Potency": "inconclusive: 23.1 µM [falling, single point]"},
      {"smiles": "Cc1ccc(NC(=O)C2=C(c3ccccc3)S(=O)(=O)CCS2(=O)=O)cc1", "Potency": "active: 20.6 µM"},
      {"smiles": "Cc1cccc(CCNC(=O)C2CCCN(S(=O)(=O)c3cnc[nH]3)C2)c1", "note": "(stereo unspecified)", "activity change, negative = inhibition": "inactive: 1.23%"},
      {"smiles": "Cc1cccc(NS(=O)(=O)c2ccc(C(=O)NCC3CCCO3)cc2)c1C", "note": "(stereo unspecified)", "Potency": "inconclusive: 29.1 µM [falling, single point]"},
      {"smiles": "COc1ccccc1CNC(=O)CCS(=O)(=O)Cc1ccc(C)cc1", "Potency": "inconclusive: 23.1 µM [activator, partial curve]"},
      {"smiles": "CCc1ccc(NC(=O)N2CCN(c3nnc(C)c4c(C)n(-c5ccc(Cl)cc5)nc34)CC2)cc1", "Potency": "inconclusive: 2.31 µM [falling, partial curve, poor fit]"},
      {"smiles": "COc1cccc(NC(=O)c2csc3c2CCCCC3)c1", "Potency": "inconclusive: 2.31 µM [activator, full curve]"},
      {"smiles": "O=C(N/N=C/c1ccc(Sc2nc3ccccc3[nH]2)o1)c1ccncc1", "activity change, negative = inhibition": "inactive: -1.73%"},
      {"smiles": "CCOC(=O)c1cc(CC)sc1NC(=O)CN1CCN(C(=O)c2ccco2)CC1", "Potency": "active: 20.6 µM"},
      {"smiles": "O=C(NCc1ccccc1Cl)c1cc(-c2ccccc2)n[nH]1", "Potency": "inconclusive: 16.4 µM [activator, partial curve, poor fit]"},
      {"smiles": "CCOc1ccc(-n2c(SCC(=O)Nc3ccc(Br)cc3)nc3n[nH]c(C)c3c2=N)cc1", "Potency": "inconclusive: 29.1 µM [falling, single point]"},
      {"smiles": "O=C(CS(=O)(=O)c1nc(-c2ccc(Cl)cc2)cn1-c1ccccc1)Nc1cccc(Cl)c1", "Potency": "inconclusive: 3.66 µM [activator, single point]"},
      {"smiles": "Cc1cc2cc(CNC(=S)NC3CCCCC3)ccc2[nH]1", "Potency": "inconclusive: 16.4 µM [falling, single point]"},
      {"smiles": "O=C(NCc1ccc(Cl)cc1)C(=O)NCC1OCCN1S(=O)(=O)c1ccc2c(c1)OCCO2", "note": "(stereo unspecified)", "Potency": "inconclusive: 23.1 µM [falling, partial curve, poor fit]"},
      {"smiles": "O=C1C2CCCN2C(c2ccc(F)c(F)c2)N1c1cccc(Cl)c1", "note": "(stereo unspecified)", "Potency": "inconclusive: 13 µM [falling, partial curve, poor fit]"},
      {"smiles": "O=C(Nc1ccccc1)C1C(c2ccccc2)C1(Cl)Cl", "note": "(stereo unspecified)", "Potency": "inconclusive: 32.6 µM [falling, partial curve, poor fit]"},
      {"smiles": "CC(C)Oc1cccc(C(=O)C2CCCN(Cc3ccc(Oc4ncccn4)cc3)C2)c1", "note": "(stereo unspecified)", "Potency": "inconclusive: 20.6 µM [falling, single point]"},
      {"smiles": "CN[C@H](C(=O)NC[C@H]1O[C@@H](n2cnc3c(N)ncnc32)[C@H](O)[C@@H]1O)[C@@H](C)OCc1ccccc1", "activity change, negative = inhibition": "inactive: -9.95%"},
      {"smiles": "CN1C(=O)c2ccccc2N(C)C1c1ccc(F)cc1", "note": "(stereo unspecified)", "activity change, negative = inhibition": "inactive: -15.9%"},
      {"smiles": "CCOCC(=O)Nc1cc(C(=O)NCCc2ccccc2)ccc1Cl", "Potency": "inconclusive: 6.51 µM [activator, partial curve]"},
      {"smiles": "CCc1ccc(C(CNC(=O)c2ccc3c(=O)n(-c4ccccc4F)c(=S)[nH]c3c2)N(C)C)cc1", "note": "(stereo unspecified)", "Potency": "inconclusive: 23.1 µM [falling, partial curve, poor fit]"},
      {"smiles": "Cc1nn(-c2ccccc2)c2nc(-c3ccco3)cc(C(=O)O)c12", "activity change, negative = inhibition": "inactive: -4.6%"},
      {"smiles": "CCC(CC)C(=O)N1CCc2cc(OC)c(OC)cc2C1COc1ccc2c(C)cc(=O)oc2c1", "note": "(stereo unspecified)", "activity change, negative = inhibition": "inactive: -11.9% [at 9.27 µM]"}
    ]}
  ]
}
